These results are taken from patent US20120277269A1 (priority 2008, published 2012).

The data set relates to patients with atrial fibrillation at risk of stroke. The source says: Median follow-up was 2.0 years and the primary outcome was stroke or systemic embolism.
Patients were recruited from 951 clinical centers in 44 countries. In brief, patients were eligible if they had atrial fibrillation documented on electrocardiogram at screening or within 6 months; and at least one of the following: prior stroke or transient ischemic attack; left ventricular ejection fraction less than 40%; New York Heart Association heart failure symptoms of Class 2 or greater within 6 months; age at least 75 years; or age at least 65 years with diabetes mellitus, hypertension or coronary artery disease.
The time in therapeutic range was calculated by the method of Rosendaal (Rosendaal F R, et al., A method to determine the optimal intensity of oral anticoagulant therapy, Thromb Haemost, 1993, 69:236-239), excluding INRs from the first week and after discontinuations. […] Concomitant use of aspirin (less than 100 mg/day) or other antiplatelet agents was allowed.
Liver function testing was performed monthly during the first year of follow-up.
The primary study outcome was stroke or systemic embolism. The primary safety outcome was major hemorrhage. Secondary outcomes were stroke, systemic embolism and death. Other outcomes were myocardial infarction, pulmonary embolism, transient ischemic attacks, and hospitalizations. The primary net benefit-risk outcome was the composite of stroke, systemic embolism, pulmonary embolism, myocardial infarction, death or major hemorrhage. Stroke was defined as sudden onset of focal neurological deficit consistent with the territory of a major cerebral artery and categorized as ischemic, hemorrhagic or unspecified. Hemorrhagic transformation of ischemic stroke was not considered as hemorrhagic stroke. Intracranial hemorrhage included hemorrhagic stroke and sub-dural or sub-arachnoid hemorrhage. Systemic embolism was an acute vascular occlusion of an extremity or organ documented by imaging, surgery or autopsy. […]

Read-outs that look alike come from different tables or passages of the source.

Take `CC(=O)CC(c1ccccc1)c1c(O)c2ccccc2oc1=O` (racemic) [Warfarin, 3-(α-acetonylbenzyl)-4-hydroxycoumarin]: the “Mean time in therapeutic range (INR 2.0 to 3.0)” value (patients on warfarin) is listed as 64%.
Consider `Cn1c(CNc2ccc(C(=N)N)cc2)nc2cc(C(=O)N(CCC(=O)O)c3ccccn3)ccc21` [Dabigatran], for which the “Rate of discontinuation at 2.5 years” value is on record as 23% (dabigatran 110 mg) and 25% (dabigatran 150 mg).
